This is one part of the list. Further columns of the screen follow, without active or inactive calls. Most of these compounds were active or inconclusive in the main read-out, so they are no random draw. The note in brackets gives the kind of curve behind each potency; many fits are weak.
Assay: qHTS Assay to Find Inhibitors of Chronic Active B-Cell Receptor Signaling
Conditions: ABC-DLBCL IkBa-CBG/CBR reporter, luminescence ratio (green luciferase fused to IkBa over red control in TMD8 lymphoma cells), 4 h
Procedure, shortened: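 Concentration-response series (up to 46 uM) were applied to TMD8 dual-reporter cells for 4 h at 37C with doxycycline. Green/red ratio, after filter-overlap correction, defined %Activity; red signal alone was normalised to basal cells and zero luminescence.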

[1] = measured here: CBR red luminescence, cell number
[2] = measured here: IkBa-CBG green luminescence

Structure (SMILES) | AC50 [1] | AC50 [2]
CCn1cc(C(=O)N2CCN(c3cccc(C)c3C)CC2)c(=O)c2ccc(C)nc21 | 3.98 µM [rising, single point] | 
COc1ccc(C(=O)O/N=C(\N)c2ccncc2)cc1OC | 14.6 µM [falling, partial curve, poor fit] | 
COc1ccccc1NC(=O)C(=O)NCCC1CCCCN1S(=O)(=O)c1ccc(F)cc1 (centres undefined) | 2.31 µM [falling, full curve] | 3.26 µM [rising, full curve, poor fit]
Cc1cccc(NC(=O)C(=O)NNC(=O)c2ccc(C(C)(C)C)cc2)c1 | 2.24 µM [falling, partial curve, poor fit] | 
CCCCCNc1c(C(=O)OCC)c(=O)[nH]c2ccccc12 | 11.2 µM [rising, partial curve, poor fit] | 
COC(=O)c1ccc(/C=C/C(=O)OCC(=O)Nc2sccc2C(N)=O)cc1 | 18.4 µM [falling, partial curve] | 16.4 µM [falling, single point]
CC(Sc1nnc(C2CC2)n1C)C(=O)Nc1ccc(N2CCOCC2)cc1 (centres undefined) |  | 6.51 µM [rising, partial curve, poor fit]
Cn1c(=O)c(C=Nc2ccccc2)c(O)c2ccccc21 | 35.5 µM [falling, single point] | 
CCOC(=O)n1cc(C(=O)c2ccccc2O)cn1 | 4.47 µM [falling, full curve, poor fit] | 
CC(=O)c1sc(-c2ccc(Cl)cc2)cc1N | 0.708 µM [rising, full curve, poor fit] | 
CC(=O)C1=C(c2ccc(Br)cc2)C(=O)c2ccccc2C1=O | 5.17 µM [falling, full curve, poor fit] | 
CN(Cc1ccccc1)S(=O)(=O)c1ccc(NS(=O)(=O)Cc2ccccc2)cc1 | 29.1 µM [falling, single point] | 18.4 µM [rising, partial curve, poor fit]
COc1cccc(N2CC(NC(=O)Cc3cccs3)CC2=O)c1 (centres undefined) | 1.12 µM [rising, full curve] | 
CCC1C/C(=C/c2ccco2)C(=O)/C(=C/c2ccco2)C1 (centres undefined) | 14.6 µM [falling, partial curve] | 
CCOc1ccc(-c2cc(CCCC(=O)NCc3ccco3)no2)cc1 | 5.17 µM [falling, partial curve] | 
c1ccc(CNc2ncnc3scc(-c4cccs4)c23)nc1 | 11.2 µM [falling, partial curve, poor fit] | 
O=C(c1ccc(F)cc1)N1CCN2C(=O)c3ccccc3C12c1ccc(Cl)cc1 (centres undefined) | 14.1 µM [falling, single point] | 
O=C(CN(C(=O)CNC(=O)c1ccco1)c1ccc(Cl)c(Cl)c1)NC1CCCCC1 | 11.2 µM [falling, partial curve, poor fit] | 
CC(C)c1ccc(C2C3=C(COC3=O)Nc3cc4c(cc32)OCO4)cc1 (centres undefined) | 2 µM [rising, full curve] | 2.24 µM [falling, full curve]
CCOc1cc(/C=N/NC(=O)CSc2cccc3cccnc23)ccc1O | 17.8 µM [falling, single point] | 

Structure (SMILES) | AC50 [1] | AC50 [2]
Cc1ccccc1NC(=O)COC(=O)CN1C(=O)NC(C)(C)C1=O | 7.31 µM [rising, partial curve, poor fit] | 
CCN(CC)c1ccc(NC(=O)c2ccc(=O)[nH]c2)cc1S(=O)(=O)Nc1ccccc1OC |  | 15.8 µM [falling, partial curve, poor fit]
NC1=NC(=O)/C(=C\c2ccsc2)S1 | 35.5 µM [falling, single point] | 
O=C(O)c1cccc(Cn2c(Cl)c(/C=N/NC(=O)c3cc4ccccc4cc3O)sc2=O)c1 | 11.2 µM [falling, single point] | 
O=C(N/N=C/c1ccc(O)cc1)Nc1cccc2nsnc12 | 15.8 µM [falling, single point] | 
Clc1cccc(N=C2NN=C(c3ccc4c(c3)OCCO4)CS2)c1 | 16.4 µM [falling, single point] | 
O=C(Nc1ccccc1C(F)(F)F)N1CCN(c2ccc3nncn3n2)CC1 | 29.1 µM [falling, single point] | 
Cn1c2ccccc2c2cnn(CC(=O)Nc3ccccc3Br)c(=O)c21 | 15.8 µM [rising, partial curve, poor fit] | 
O=C(CCl)N=c1sccn1Cc1ccccc1Cl | 11.2 µM [falling, partial curve] | 
CC(C)(C)N/N=C1\CC(c2ccccc2)Oc2ccccc21 (centres undefined) | 0.259 µM [rising, full curve] | 
CCCCC(=O)OCc1c(-c2cccc(OC)c2)ncc2ccccc12 | 10.3 µM [falling, partial curve] | 
N#Cc1ccc(NC(=O)c2cc(-c3cccs3)on2)cc1 | 3.98 µM [rising, partial curve, poor fit] | 
CCCn1ccc2c(OCC(=O)Nc3ccc(F)cc3F)cccc2c1=O | 3.16 µM [falling, partial curve, poor fit] | 
Cc1cccc(OCC(=O)Nc2ccc3c(c2)N(C)C(=O)c2ccccc2S3)c1 | 14.1 µM [falling, partial curve, poor fit] | 
COc1cccc(C(=O)NNC(=O)C(=O)Nc2cccc(Cl)c2C)c1 | 14.1 µM [falling, partial curve] | 
O=C(c1ccco1)N1CCN(Cc2c(Cl)cccc2Cl)CC1 | 10 µM [rising, partial curve, poor fit] | 
COC(=O)/C(C#N)=C1/C=Cc2ccccc2N1 | 2.51 µM [falling, full curve, poor fit] | 
Clc1ccccc1OCc1nc(-c2ccc(Br)o2)no1 | 0.411 µM [rising, full curve, poor fit] | 
Cc1cc(Cl)cc(Cl)c1OCCOc1cccc2cccnc12 | 1.3 µM [rising, partial curve] | 
Cc1ccccc1C1c2[nH]c3ccccc3c2CCN1Cc1cccn1-c1ncccn1 (centres undefined) | 17.8 µM [falling, single point] | 

A draw from above in order of SMILES length, ascending.
Structure (SMILES) | AC50 [1] | AC50 [2]
CC(=O)c1sc(-c2ccc(Cl)cc2)cc1N | 0.708 µM [rising, full curve, poor fit] | 
Cn1c(=O)c(C=Nc2ccccc2)c(O)c2ccccc21 | 35.5 µM [falling, single point] | 
N#Cc1ccc(NC(=O)c2cc(-c3cccs3)on2)cc1 | 3.98 µM [rising, partial curve, poor fit] | 
CCCCCNc1c(C(=O)OCC)c(=O)[nH]c2ccccc12 | 11.2 µM [rising, partial curve, poor fit] | 
CCCn1ccc2c(OCC(=O)Nc3ccc(F)cc3F)cccc2c1=O | 3.16 µM [falling, partial curve, poor fit] | 
COc1cccc(C(=O)NNC(=O)C(=O)Nc2cccc(Cl)c2C)c1 | 14.1 µM [falling, partial curve] | 
CC(Sc1nnc(C2CC2)n1C)C(=O)Nc1ccc(N2CCOCC2)cc1 (centres undefined) |  | 6.51 µM [rising, partial curve, poor fit]
O=C(Nc1ccccc1C(F)(F)F)N1CCN(c2ccc3nncn3n2)CC1 | 29.1 µM [falling, single point] | 
O=C(CN(C(=O)CNC(=O)c1ccco1)c1ccc(Cl)c(Cl)c1)NC1CCCCC1 | 11.2 µM [falling, partial curve, poor fit] | 

— PubChem BioAssay AID493014 (National Center for Advancing Translational Sciences (NCATS), 2011)
